Experimental data from paper PMC7295033.
No constants are given. Whether binding was seen depends on the method and setting. In cells and extracts the contact can be indirect. These calls come from enrichment with a bait or labelling near it, and not all partners need be listed.

Sequences of proteins named here, by UniProt entry; tags and fusion partners are left off.
UniProt Q60857: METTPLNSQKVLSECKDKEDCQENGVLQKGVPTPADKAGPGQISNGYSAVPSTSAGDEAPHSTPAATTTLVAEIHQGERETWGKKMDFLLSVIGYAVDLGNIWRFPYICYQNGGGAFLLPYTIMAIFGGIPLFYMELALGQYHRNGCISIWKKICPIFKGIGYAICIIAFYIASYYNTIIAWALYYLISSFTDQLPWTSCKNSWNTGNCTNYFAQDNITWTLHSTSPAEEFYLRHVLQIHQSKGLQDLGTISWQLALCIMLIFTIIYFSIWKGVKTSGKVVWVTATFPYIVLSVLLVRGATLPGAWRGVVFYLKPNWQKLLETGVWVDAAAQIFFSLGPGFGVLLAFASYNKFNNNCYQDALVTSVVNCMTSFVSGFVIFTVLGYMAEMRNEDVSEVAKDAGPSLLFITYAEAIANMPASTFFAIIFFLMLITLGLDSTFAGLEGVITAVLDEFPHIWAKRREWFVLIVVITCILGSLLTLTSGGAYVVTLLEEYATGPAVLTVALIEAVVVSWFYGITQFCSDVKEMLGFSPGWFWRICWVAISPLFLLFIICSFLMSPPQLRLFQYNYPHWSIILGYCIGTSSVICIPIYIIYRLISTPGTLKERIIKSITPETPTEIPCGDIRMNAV

The binders below were run against serotonin transporter, wildtype (WT SERT) (mouse (endogenous in midbrain synaptosomes)) (UniProt Q60857) (assay: affinity purification with mass spectrometry; SERT immunoprecipitated with C-terminal anti-SERT serum #48 cross-linked to protein A Dynabeads from midbrain synaptosomes (lysed in PBS + 0.7% DDM, 4°C) of WT, SERT Ala56 and SERT KO (negative control) mice; in-gel tryptic digestion, 8-step MudPIT LC-MS/MS; label-free quantification).

Row | binding | Binder
1 | binds | 14-3-3 γ (protein, UniProt P61982 1-247) MVDREQLVQKARLAEQAERYDDMAAAMKNVTELNEPLSNEERNLLSVAYKNVVGARRSSWRVISSIEQKTSADGNEKKIEMVRAYREKIEKELEAVCQDVLSLLDNYLIKNCSETQYESKVFYLKMKGDYYRYLAEVATGEKRATVVESSEKAYSEAHEISKEHMQPTHPIRLGLALNYSVFYYEIQNAPEQACHLAKTAFDDAIAELDTLNEDSYKDSTLIMQLLRDNLTLWTSDQQDDDGGEGNN
2 | binds | Sorbs1 (protein, UniProt Q62417 1-1290) MSSECDVGSSKAVVNGLASGNHGPDKDMDPTKICTGKGTVTLRASSSYRGTPSSSPVSPQESPKHESKSGLEPEDPSADEWKLSSSADTNGNAQPSPLAAKGYRSVHPSLSADKPQGSPLLNEVSSSHIETDSQDFPPTSRPSSAYPSTTIVNPTIVLLQHNRDPASERRAGEQDPVPTPAELTSPGRASERRAKDASRRVVRSAQDLSDVSTDEVGIPLRNTERSKDWYKTMFKQIHKLNRDDDSDVHSPRYSFSDDTKSPLSVPRSKSEMNYIEGEKVVKRSATLPLPARSSSLKSSPERNDWEPLDKKVDTRKYRAEPKSIYEYQPGKSSVLTNEKMSRDISPEEIDLKNEPWYKFFSELEFGRPTNLEKDLSFCQAELEADLEKVETVNKSPSANSPQSSAVSPTPDITSEPPGYIYSSNFHAVKRESDGTPGGLASLENERQIYKSVLEGGDIPLQGLSGLKRPSSSASTKVDRKGGNAHMISSSSVHSRTFHTSNALGPGCKHKKPLSAAKACISEILPSKFKPRLSAPSALLQEQKSVLLPSEKAQSCENLCVSLNDSKRGLPLRVGGSIENLLMRSRRDYDSKSSSTMSLQEYGTSSRRPCPLSRKAGLHFSMFYRDMHQINRAGLSLGSISSSSVRDLASHFERSSLTLARGELGASQEGSEHIPKHTVSSRITAFEQLIQRSRSMPSLDFSGRLSKSPTPVLSRSGLTSARSAESLLESTKLRPREMDGMDSGGVYASPTCSNMADHALSFRSLVPSEPLSICSDELDHCSNVSNDSREGSGGSVHGDFPKHRLNKCKGTCPASYTRFTTIRKHEQQSSRQSDWRSDSRGDKNSLLRNIHLMSPLPFRLKKPLQQHPRQPPPSDSSESPAGQKADLPCHDPQDQPHSAGKPQVPTRLSSRHTMARLSHNSEPPLDRPAGLEDCTRAINNGNPVPYSDHGLDRNNNPQSELAAAHGDSESPRHFIPADYLESTEEFIRRRHDDKEKLLADQRRLKREQEEADIAARRHTGVIPTHHQFITNERFGDLLNIDDTAKRKSGLEMRPARAKFDFKAQTLKELPLQKGDVVYIYRQIDQNWYEGEHHGRVGIFPRTYIELLPPAEKAQPRKLAPVQVLEYGEAIAKFNFNGDTQVEMSFRKGERITLLRQVDENWYEGRIPGTSRQGIFPITYVDVLKRPLVKTPVDYIDLPYSSSPSRSATVSPQQPQAQQRRVTPDRSQPSLDLCSYQALYSYVPQNDDELELRDGDIVDVMEKCDDGWFVGTSRRTRQFGTFPGNYVKPLYL
3 | binds | 14-3-3 α/β (protein, UniProt Q9CQV8 1-246) MTMDKSELVQKAKLAEQAERYDDMAAAMKAVTEQGHELSNEERNLLSVAYKNVVGARRSSWRVISSIEQKTERNEKKQQMGKEYREKIEAELQDICNDVLELLDKYLILNATQAESKVFYLKMKGDYFRYLSEVASGENKQTTVSNSQQAYQEAFEISKKEMQPTHPIRLGLALNFSVFYYEILNSPEKACSLAKTAFDEAIAELDTLNEESYKDSTLIMQLLRDNLTLWTSENQGDEGDAGEGEN
4 | binds | Tjp2 (protein, UniProt Q9Z0U1 1-1167) MEEVIWEQYTVTLQKDSKRGFGIAVSGGRDNPHFENGETSIVISDVLPGGPADGLLQENDRVVMVNGTPMEDVLHSFAVQQLRKSGKIAAIVVKRPRKVQVAPLQGSPPLSHDDRGFEVIEEFDGRSFRSGYSERSRHSSHDMLSHSWEGNRERGRPHQRTQSRERERSRGRSLERGLDQEDYGRSRERSRGRSLERGLDRDFVSRDHSRGRSIDRDYDRDYERSYHEAYEPDYGGGYSPSYDRRAHPETRYERSRSREHLRSRSPSPESRSRHEHKGQHDPDRPIGVLLTKSKANEEYGLRLGSQIFIKEMTRTGLATKDGNLHEGDIILKINGTVTENMSLTDARKLIEKSRGKLQLVVLRDSKQTLINIPALNDSDSEVEDISEIESNRSFSPEERRQQYSDQDYHSSTEKLKERPSSREETSGRLSRMGATPTPFKSTGDITAAGVTEASREPRYQEEGPVPQPRTAPRVFLRPSPEDEAIYGPNTKMVRFKKGDSVGLRLAGGNDVGIFVAGIQEGTSAEQEGLQEGDQILKVNTQDFRGLVREDAVLYLLEIPKGETVTILAQSRADVYRDILACGRGDSFFIRSHFECEKETPQSLAFTRGEVFRVVDTLYDGKLGHWLAVRIGNELEKGLIPNKSRAEQMASVQNAQRENAGDRADFWRMRGQRSSGGVKKNLRKSREDLAAAVSVSTKFPAYEKVLLREAGFKRPVVLFGPIADIAMERLATELPDLFQTAKTEPKDAGSEKSSGVVRLNTVRQIIEQDKHALLDVTPKAVDLLNYTQWFPIVIFFNPDSRQGVKTIRQRLSPTSNKSSRKLFDQANKLKKTCSHLFTATINVNSANDGWFGSLKDSIQQQQNEAVWVSEGKMEGMDDDAEDRMSYLTAMGADYLSCDSRLISDFEDTDGEGGAYTDNELEEPAEEPLVSSITRSSEPVQHEENIRKSSPEPRAQMRRAASRDQLRDASPPPAFKPEPPKARSQNREDSFDYSKSNLPATAGSEIPGGSTKGYPPPIAAKPAFGRPILKPSTPVPMPESEEVGESTEEQEDAPRSVLGRVKIFEKMDHKAKLQRMQELQEAQNARIEIAQKHPDIYAVPIKAPKPDAGLPPHMSSRPPEPQKAPSRLYQDTRGSYGSDPEEEEYRQQLAAHSKRGYYSQPSRYRDTEL
5 | binds | cGMP-dependent protein kinase 2 (protein, UniProt Q61410 1-762) MGNGSVKPKHAKHPDGHSGNLSNEALRSKVLELERELRRKDAELQEREYHLKELREQLAKQTVAIAELTEELQSKCIQLNKLQDVIHVQGGSPLQASPDKVPLDVHRKTSGLVSLHSRRGAKAGVSAEPTTRTYDLNKPPEFSFEKARVRKDSSEKKLITDALNKNQFLKRLDPQQIKDMVECMYGEKLSTGSYVIKQGEPGNHIFVLAEGRLEVFQGEKLLSSIPMWTTFGELAILYNCTRTASVKAITNVKTWALDREVFQNIMRRTAQARDEEYRNFLRSVSLLKNLPEDKLTKIIDCLEVEYYDKGDYIIREGEEGSTFFILAKGKVKVTQSTEGHDQPQLIKTLQKGEYFGEKALISDDVRSANIIAEENDVACLVIDRETFNQTVGTFDELQKYLEGYVATLNRDDEKRHAKRSMSSWKLSKALSLEMIQLKEKVARFSSTSPFQNLEIIATLGVGGFGRVELVKVKNENVAFAMKCIRKKHIVDTKQQEHVYSEKRILEELCSPFIVKLYRTFKDNKYVYMLLEACLGGELWSILRDRGSFDEPTSKFCVACVTEAFDYLHLLGIIYRDLKPENLILDADGYLKLVDFGFAKKIGSGQKTWTFCGTPEYVAPEVILNKGHDFSVDFWSLGILVYELLTGNPPFSGIDQMMTYNLILKGIEKMDFPRKITRRPEDLIRRLCRQNPTERLGNLKNGINDIKKHRWLNGFNWEGLKARSLPSPLRRELSGPIDHSYFDKYPPEKGVPPDEMSGWDKDF
6 | binds | flotillin-1 (protein, UniProt O08917 1-428) MFFTCGPNEAMVVSGFCRSPPVMVAGGRVFVLPCIQQIQRISLNTLTLNVKSEKVYTRHGVPISVTGIAQVKIQGQNKEMLAAACQMFLGKTEAEIAHIALETLEGHQRAIMAHMTVEEIYKDRQKFSEQVFKVASSDLVNMGISVVSYTLKDIHDDQDYLHSLGKARTAQVQKDARIGEAEAKRDAGIREAKAKQEKVSAQCLSEIEMAKAQRDYELKKATYDIEVNTRRAQADLAYQLQVAKTKQQIEEQRVQVQVVERAQQVAVQEQEIARREKELEARVRKPAEAERYRLERLAEAEKAQLIMQAEAEAESVRMRGEAEAFAIGARARAEAEQMAKKAEAFQMYQEAAQLDMLLEKLPQVAEEISGPLTSANKITLVSSGSGTMGAAKVTGEVLDILSRLPESVERLTGVSISQVNHNKPLRTA
7 | binds | Arhgap26 (protein, UniProt Q6ZQ82 1-814) MGLPALEFSDCCLDSPHFRETLKSHEAELDKTNKFIKELIKDGKSLISALKNLSSAKRKFADSLNEFKFQCIGDAETDDEMCIARSLQEFAAVLRNLEDERSRMIENASEVLITPLEKFRKEQIGAAREAKKKYDKETEKYCGTLEKHLNLSSKKKESQLQEADSQVDLVRQHFYEVSLEYVFKVQEVQERKMFEFVEPLLAFLQGLFTFYHHGYELAKDFGDFKTQLTISIQNTRNRFEGTRSEVESLMKKMKENPLEHKTISPYTMEGYLYVQEKRHFGTSWVKHYCTYQRDSKQITMVPFDQKSGGKGGEDESVTLKSCTRRKTDSIEKRFCFDVEAVDRPGVITMQALSEEDRRLWMEAMDGREPVYNSNRDSQSEGTAQLDSIGFSIIRKCIHAVETRGINEQGLYRIVGVNSRVQKLLSVLMDPKAASETETDICAEWEIKTVTSALKTYLRMLPGPLMMYQFQRSFIKAAKLENQETRVSEIHSLVHRLPEKNRQMLQLLMNHLANVANNHKQNLMTVANLGVVFGPTLLRPQEETVAAIMDIKFQNIVIEILIENHEKIFNTVPDVPLTNAQLHLSRKKSSDSKPPSCSKRPLTLFHAVPSTEKQEQRNSIINSSLESVSSSANSILNSSSSLQPNLNSSDSNLDVVKPSRPSSLPPNPSPTSPLSPSWPMFSAPSSPMPTSSTSSDSSPIRSVAGFVWFSVAAVVLSLAWSSLHAVFSLLVNFVPCHPNLHLLFDRPEEAVREDSSTPFRKAKALYACQAEHDSELSFTAGTVFDNVHPSQEPGWLEGTLNGKTGLIPENYVEFL
